We go through ten compounds from ChEMBL document CHEMBL4513134, “CO-ADD screening of University of Queensland (Australia) compounds” (2021).

As a reminder, the Inhibition is the change of the read-out against control, counted positive when it falls.

The other results are listed elsewhere or left out. Potency and affinity values are given separately.

This assay concerns Acinetobacter baumannii. The settings on record: Concentration 32 ug.mL-1; ASSAY_TEST Inhibition of Bacterial Growth; detection method Absorption (OD600); MEDIA CAMHB; plate type 384well; NBS; CORNING #3640; time 18 hr.
`CN(C)C(=O)c1ncc([N+](=O)[O-])n1C`: the Inhibition is reported as 7.61%.
As for `Cc1ccc(CCNC(=O)c2ncc([N+](=O)[O-])n2C)cc1`, the Inhibition was determined as 8.37%.
The figure for `Cn1c([N+](=O)[O-])cnc1C(=O)NC1CC1` is 4.49%.
The figure for `CC(NC(=O)c1ncc([N+](=O)[O-])n1C)c1ccc(F)cc1` (stereo not given) is 2.85%; for `Cn1c([N+](=O)[O-])cnc1C(=O)NCc1ccccn1.O=C(O)C(F)(F)F` it is 2.43%; for `Cn1c([N+](=O)[O-])cnc1C(=O)NCc1ccc(F)cc1` it is 8.21%.
The figure for `Cn1c([N+](=O)[O-])cnc1C(=O)NCc1cccc(OC(F)(F)F)c1` is 2.6%; for `Cn1c([N+](=O)[O-])cnc1C(=O)N1CCOCC1` it is 3.87%.
On to `Cn1c([N+](=O)[O-])cnc1C(=O)NCc1ccc(OC(F)(F)F)cc1`, for which the Inhibition is reported as -2.47%.
The figure for `Cn1c([N+](=O)[O-])cnc1C(=O)N1CCCC1` is 3.46%.
